From patent US20220127580A1, “COMPOSITIONS AND METHODS FOR REPROGRAMING NON-HEPATOCYTE CELLS INTO HEPATOCYTE CELLS” (priority 2019, published 2022)
At least one structure is not confirmed: it was looked up by name or label, or the drawing left a doubt.

Tested on: HBV
Assay: HBV infection of hiHeps, response to anti-HBV compounds
Type: cell-based
Conditions: HBV-infected hiHeps, LAM 1 μM, ETV 0.5 μM, especially during prolonged treatment

Nc1ccn([C@@H]2CS[C@H](CO)O2)c(=O)n1 [lamivudine]
inhibition of HBV-DNA: greatly inhibited
